Here are results for 17 compounds from PubChem BioAssay AID248 (DTP/NCI, 2004).

This test has as its system L1210 leukemia ip in BDF1 mice, survival T/C. The test is described as follows: NCI In Vivo Anticancer Drug Screen. Data for tumor model L1210 Leukemia (intraperitoneal) in B6D2F1 (BDF1) mice. The conditions noted are these: T/C endpoint: mean survival time, higher T/C = longer survival.
Where [1] appears, read: dose: 100.0 mg/kg/injection, schedule: Q01DX001 (ip), vehicle: saline with Tween-80.
Where [2] appears, read: dose: 400.0 mg/kg/injection, schedule: Q01DX001 (ip), vehicle: saline with Tween-80.
[3] abbreviates: dose: 200.0 mg/kg/injection, schedule: Q01DX001 (ip), vehicle: carboxymethylcellulose (CMC).
Where [4] appears, read: dose: 50.0 mg/kg/injection, schedule: Q01DX009 (ip), vehicle: Klucel (hydroxypropylcellulose) (HPC).
The mark [5] stands for this setting: dose: 500.0 mg/kg/injection, schedule: Q01DX001 (ip), vehicle: other.

The list is a part of this screen's results and no random one: it gathers tests that were run many times, whatever their T/C, doses with no T/C, and many T/C values between a quarter and a half above the control. Further doses and runs are listed elsewhere. T/C gives the treated animals as a percentage of the vehicle group. Some doses have a count of surviving animals in place of a T/C: the source holds a T/C of zero for them, seemingly a mark for toxic or unscored doses. Some doses without a T/C left all or most animals alive at the check, yet need not have been tolerated: survival well below the control is almost never listed, so the zero probably covers shortened survival too. Counts of survivors are from the toxicity check (mostly the fifth day) where no day follows; animals may have died later. Schedule codes are those of the source, read here as Q, the interval in days (D) or hours (H), X, the number of doses. Some schedules carry Z or #; the key to these is not given. Counts like (3×) count equal records among those shown. Some doses were run more than once; the values are given in rising order. Where survival is the endpoint, this PubChem deposit counts one and a half times the control or more as active, and values a quarter to a half above the control carry no call in these data; other NCI protocols may use other cut-offs. Some T/C values are followed by the survivors on the day toxicity was checked, most often the fifth; without a count, all were alive then.

Turning to `CCN(CC)CCCNCC(Cc1ccccc1)c1ccccc1` (configuration not stated), where the note is “dose: 400.0 mg/kg/injection, schedule: Q04DX002 (ip), vehicle: saline”, the survivor count is listed as 1 of 3.
In the case of `CC1(O)OOC(=O)C1(C)C` (configuration not stated), the survivor count by setting is: under setting [1], 0 of 6; (dose: 200.0 mg/kg/injection, schedule: Q01DX001 (ip), vehicle: saline with Tween-80) 0 of 6; under setting [2], 0 of 6.
Regarding `NC(=O)c1cc[n+](-c2ccc([N+](=O)[O-])cc2[N+](=O)[O-])cc1`, the survivor count (dose: 400.0 mg/kg/injection, schedule: Q04DX003 (ip), vehicle: saline) is on record as 3 of 6.
As to `[O-][n+]1c(Cl)cccc1Cl`, the survivor count is 2 of 6 (dose: 75.0 mg/kg/injection, schedule: Q01DX001 (ip), vehicle: carboxymethylcellulose (CMC)); 0 of 6 (dose: 150.0 mg/kg/injection, schedule: Q01DX001 (ip), vehicle: carboxymethylcellulose (CMC)); 0 of 6 (dose: 300.0 mg/kg/injection, schedule: Q01DX001 (ip), vehicle: carboxymethylcellulose (CMC)).
Regarding `C[CH2][Ge]([CH2]C)([CH2]C)[CH2]C#N`, the survivor count (dose: 100.0 mg/kg/injection, schedule: Q04DX002 (ip), vehicle: saline with Tween-80) is 0 of 3; the survivor count (dose: 200.0 mg/kg/injection, schedule: Q04DX002 (ip), vehicle: saline with Tween-80) was 0 of 3; the survivor count (dose: 400.0 mg/kg/injection, schedule: Q04DX002 (ip), vehicle: saline with Tween-80) is listed as 0 of 3.
With `O=C1C=CC(=O)C(SCCC(=O)O)=C1`, the survivor count is 1 of 4 under setting [3] and 1 of 4 (dose: 400.0 mg/kg/injection, schedule: Q01DX001 (ip), vehicle: carboxymethylcellulose (CMC)).
As to `CN1CCCC1c1ccc(Br)cc1` (configuration not stated), the survivor count runs as follows: (dose: 200.0 mg/kg/injection, schedule: Q01DX001 (ip), vehicle: acetone) 1 of 6; (dose: 400.0 mg/kg/injection, schedule: Q01DX001 (ip), vehicle: acetone) 0 of 6.
For the compound `COc1ccccc1N1CCN(CCc2c[nH]c3cc4c(cc23)OCO4)CC1`, the T/C reads like this: (dose: 25.0 mg/kg/injection, schedule: Q01DX009 (ip), vehicle: Klucel (hydroxypropylcellulose) (HPC)) 125 [5 of 6 alive] and 132 % of control; under setting [4], 137 % of control. The survivor count runs as follows: under setting [4], 0 of 6 and 3 of 6; (dose: 50.0 mg/kg/injection, schedule: Q01DX015 (ip), vehicle: carboxymethylcellulose (CMC)) 0 of 6; (dose: 100.0 mg/kg/injection, schedule: Q01DX009 (ip), vehicle: Klucel (hydroxypropylcellulose) (HPC)) 0 of 6; (dose: 100.0 mg/kg/injection, schedule: Q01DX015 (ip), vehicle: carboxymethylcellulose (CMC)) 0 of 6; (dose: 200.0 mg/kg/injection, schedule: Q01DX015 (ip), vehicle: carboxymethylcellulose (CMC)) 0 of 6 (2×); (dose: 200.0 mg/kg/injection, schedule: Q04DX003 (ip), vehicle: Klucel (hydroxypropylcellulose) (HPC)) 4 of 4.
On to `CCCSc1nc(N)nc2nc[nH]c12`, for which the T/C is 136 % of control (dose: 6.6 mg/kg/injection, schedule: Q01DX Z (ip), vehicle: carboxymethylcellulose (CMC)); 125 % of control (dose: 6.7 mg/kg/injection, schedule: Q01DX Z (ip), vehicle: carboxymethylcellulose (CMC)); 133, 136, 137 [5 of 6 alive], 147, 172 % of control (dose: 10.0 mg/kg/injection, schedule: Q01DX Z (ip), vehicle: carboxymethylcellulose (CMC)); 139 % of control (dose: 17.0 mg/kg/injection, schedule: Q01DX Z (ip), vehicle: carboxymethylcellulose (CMC)); 133 % of control (dose: 19.0 mg/kg/injection, schedule: Q01DX009 (ip), vehicle: Klucel (hydroxypropylcellulose) (HPC)); 138 % of control (dose: 26.0 mg/kg/injection, schedule: Q01DX Z (ip), vehicle: carboxymethylcellulose (CMC)). Also, the T/C (dose: 45.0 mg/kg/injection, schedule: Q01DX009 (ip), vehicle: Klucel (hydroxypropylcellulose) (HPC)) is 137 % of control; the T/C (dose: 60.0 mg/kg/injection, schedule: Q01DX Z (ip), vehicle: carboxymethylcellulose (CMC)) was 135 % of control; the T/C (dose: 65.0 mg/kg/injection, schedule: Q01DX009 (ip), vehicle: Klucel (hydroxypropylcellulose) (HPC)) is 139 % of control; the T/C (dose: 80.0 mg/kg/injection, schedule: Q01DX Z (ip), vehicle: carboxymethylcellulose (CMC)) is 130, 133, 147, 161 % of control; the T/C (dose: 100.0 mg/kg/injection, schedule: Q01DX009 (ip), vehicle: saline) is 142 % of control; the T/C (dose: 120.0 mg/kg/injection, schedule: Q01DX Z (ip), vehicle: carboxymethylcellulose (CMC)) is 138 % of control. Further, the T/C is 148 % of control (dose: 132.0 mg/kg/injection, schedule: Q01DX009 (ip), vehicle: Klucel (hydroxypropylcellulose) (HPC)); 137 % of control (dose: 200.0 mg/kg/injection, schedule: Q01DX009 (ip), vehicle: Klucel (hydroxypropylcellulose) (HPC)); 125 % of control (dose: 250.0 mg/kg/injection, schedule: Q## X001 (ip), vehicle: other); 143 % of control (dose: 300.0 mg/kg/injection, schedule: Q01DX009 (ip), vehicle: Klucel (hydroxypropylcellulose) (HPC)); 125 % of control [7 of 10 alive] (dose: 400.0 mg/kg/injection, schedule: Q01DX001 (ip), vehicle: other); 122 [9 of 10 alive], 132 [7 of 10 alive], 141 % of control under setting [5]. For the same compound, the survivor count (dose: 62.0 mg/kg/injection, schedule: Q01DX001 (ip), vehicle: other) is 10 of 10; the survivor count (dose: 180.0 mg/kg/injection, schedule: Q01DX Z (ip), vehicle: carboxymethylcellulose (CMC)) is given as 3 of 6; the survivor count (dose: 270.0 mg/kg/injection, schedule: Q01DX Z (ip), vehicle: carboxymethylcellulose (CMC)) is 1 of 6; the survivor count (dose: 320.0 mg/kg/injection, schedule: Q01DX Z (ip), vehicle: carboxymethylcellulose (CMC)) is reported as 1 of 6; the survivor count (dose: 400.0 mg/kg/injection, schedule: Q01DX009 (ip), vehicle: saline) is given as 3 of 6; the survivor count under setting [5] is reported as 4 of 10. Also, the survivor count by setting is: (dose: 500.0 mg/kg/injection, schedule: Q## X001 (ip), vehicle: other) 10 of 10; (dose: 600.0 mg/kg/injection, schedule: Q01DX001 (ip), vehicle: other) 4 of 10; (dose: 600.0 mg/kg/injection, schedule: Q## X001 (ip), vehicle: other) 5 of 10; (dose: 640.0 mg/kg/injection, schedule: Q01DX Z (ip), vehicle: carboxymethylcellulose (CMC)) 0 of 6.
For `CCOC(OCC)c1nc(NC(C)=O)[nH]c(=O)c1CCCCc1ccccc1`, the survivor count under setting [1] is given as 6 of 6.
For the compound `Cc1c(O)ccc(O)c1C`, the survivor count (dose: 400.0 mg/kg/injection, schedule: Q01DX001 (ip), vehicle: saline) is 0 of 6.
As for `CC1=CC(C)(C)NC(=S)N1c1ccc(N=Nc2ccccc2)cc1`, the survivor count is 6 of 6 (dose: 224.0 mg/kg/injection, schedule: Q01DX Z (ip), vehicle: methylcellulose (MC)) and 4 of 6 (dose: 750.0 mg/kg/injection, schedule: Q01DX Z (ip), vehicle: methylcellulose (MC)).
Consider `CNCCc1cc2c(cc1C=O)OCO2`, for which the survivor count (dose: 300.0 mg/kg/injection, schedule: Q01DX001 (ip), vehicle: saline) is listed as 0 of 6.
With `Nc1nc(N)c2c(n1)CCP(c1ccccc1)C2` (configuration not stated), the survivor count reads like this: (dose: 100.0 mg/kg/injection, schedule: Q04DX003 (ip), vehicle: saline with Tween-80) 3 of 5; (dose: 200.0 mg/kg/injection, schedule: Q04DX003 (ip), vehicle: saline with Tween-80) 0 of 6; (dose: 400.0 mg/kg/injection, schedule: Q04DX003 (ip), vehicle: saline with Tween-80) 0 of 6.
With `CCOC(=O)NC(/C=C/c1ccccc1)NC(=O)OCC`, under setting [3], the survivor count is 4 of 4.
As for `CC(C)(C)C1=CC(=O)C(Cl)(C(C)(C)C)C(Cl)C1=O` (configuration not stated), the survivor count under setting [2] is reported as 1 of 3.
Regarding `CNC(=S)N/N=C/c1ccc(N(C)CCC#N)cc1`, the survivor count (dose: 400.0 mg/kg/injection, schedule: Q01DX009 (ip), vehicle: Klucel (hydroxypropylcellulose) (HPC)) is recorded as 0 of 6.
